Measurements from paper PMC9873567.
Results are given in words; binding and its absence hold for the method and conditions named. Sequences can lack the tags named with a protein.

Amino acid sequences for entries named in this document (tags omitted).
UniProt Q9LS26: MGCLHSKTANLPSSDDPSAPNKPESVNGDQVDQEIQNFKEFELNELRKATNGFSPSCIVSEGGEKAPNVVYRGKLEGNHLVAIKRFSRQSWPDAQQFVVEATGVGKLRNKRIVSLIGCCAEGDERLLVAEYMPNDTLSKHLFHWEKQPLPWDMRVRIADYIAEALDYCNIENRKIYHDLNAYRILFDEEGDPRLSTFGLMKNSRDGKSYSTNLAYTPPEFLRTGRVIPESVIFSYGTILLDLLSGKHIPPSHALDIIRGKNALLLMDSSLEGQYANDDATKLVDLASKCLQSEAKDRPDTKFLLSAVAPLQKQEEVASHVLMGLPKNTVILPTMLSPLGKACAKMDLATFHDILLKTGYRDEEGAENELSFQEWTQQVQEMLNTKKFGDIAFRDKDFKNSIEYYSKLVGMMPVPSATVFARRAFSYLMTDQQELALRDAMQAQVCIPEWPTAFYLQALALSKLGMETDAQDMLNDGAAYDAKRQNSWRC

Experiments:
[1] = target: T1, BD-PUB30 (full length PUB30 as bait) (Arabidopsis thaliana) (UniProt Q058P4); experiment: two-hybrid; yeast strain AH109; bait on the DNA-binding domain (pGBKT7), prey on the activation domain (pGADT7); growth on SD (-Trp, -Leu, -His) with 1 mM 3-AT, tenfold serial dilutions
T1 sequence: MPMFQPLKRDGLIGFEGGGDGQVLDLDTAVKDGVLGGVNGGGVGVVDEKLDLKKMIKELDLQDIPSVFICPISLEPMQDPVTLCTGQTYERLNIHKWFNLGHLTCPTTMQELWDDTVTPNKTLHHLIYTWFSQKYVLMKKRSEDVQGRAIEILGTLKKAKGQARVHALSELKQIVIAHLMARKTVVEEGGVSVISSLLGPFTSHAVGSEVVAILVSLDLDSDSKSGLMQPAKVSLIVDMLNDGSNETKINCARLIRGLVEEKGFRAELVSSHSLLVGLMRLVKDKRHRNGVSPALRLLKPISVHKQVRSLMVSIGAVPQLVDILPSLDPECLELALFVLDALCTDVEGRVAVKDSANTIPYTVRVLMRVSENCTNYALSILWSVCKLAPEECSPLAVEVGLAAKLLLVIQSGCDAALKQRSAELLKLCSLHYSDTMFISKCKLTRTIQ

[2] = target: T2, BD-PUB31 (full length PUB31 as bait) (Arabidopsis thaliana) (UniProt Q9FHN9); experiment: as above
T2 sequence: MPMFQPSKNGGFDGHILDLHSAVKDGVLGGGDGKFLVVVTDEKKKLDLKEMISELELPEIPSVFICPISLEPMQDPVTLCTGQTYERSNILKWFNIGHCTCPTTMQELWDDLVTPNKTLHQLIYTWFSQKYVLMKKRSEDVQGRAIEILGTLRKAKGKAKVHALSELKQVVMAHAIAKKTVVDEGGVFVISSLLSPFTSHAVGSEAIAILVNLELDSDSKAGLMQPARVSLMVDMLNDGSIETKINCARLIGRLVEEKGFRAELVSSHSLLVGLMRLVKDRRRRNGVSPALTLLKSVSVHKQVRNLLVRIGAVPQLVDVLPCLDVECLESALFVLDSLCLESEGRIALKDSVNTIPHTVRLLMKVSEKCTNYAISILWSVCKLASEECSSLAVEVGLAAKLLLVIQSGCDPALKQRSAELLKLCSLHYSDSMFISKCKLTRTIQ

In the case of “BSK2 (yeast two-hybrid) (from UniProt Q9LS26 1-489)”, the binding [1] is reported as “no binding” and the binding [2] is reported as “no binding”.
